Data as given in PubChem BioAssay AID1347423 (Functional Genomics Laboratory (NCATS/FGL), 2020).
Among all 52,000 sequences or so, about 210 (0.4%) were called active.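 Rule for the calls: active = gene whose silencing raises cell survival under the drug, median off-target-corrected z-score across its silencing RNAs 2 or more; inactive = the rest.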 The list shows a part of the results.

Test: Resistance to Poly (ADP-Ribose) Polymerase inhibitor: Gene Identification via Genome-wide siRNA Screen
Conditions: mouse BRCA2 R2336H ES cells, olaparib, CellTiter-Glo viability; hits give high values
In short: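 Genome-wide siRNA screen (3 siRNAs/gene, 20 nM) in mouse ES cells carrying hypomorphic BRCA2 R2336H; olaparib 500 nM added 48 h post-transfection, CellTiter-Glo viability 72 h later. Normalized to plate-median negative control; MAD z-scores, gene median, seed-adjusted.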

Sequence	z-score
GGACUAUAUCAGCGGAAGUTT against BC023957	inactive: 0.454
CCCUACAAAGUAUAUCGAATT against Isgf3g	inactive: -0.403
CGAAUGGCAUACAAUAACCTT against C1qtnf7	inactive: -0.174
GGUAGAGAACCAUUUGCUGTT against Dtnbp1	inactive: -0.121
GCCCAGGUCUAAUGUCUAATT against Tac4	inactive: -2.75
GCAAGGAUUACCUAUAGGATT against 3000004N20Rik	inactive: 0.588
GGAAAGGGCGGUUCAAAAGTT against Cacnb1	inactive: 0.656
CCAUCUUGACAUCUCGUGUTT against Olfr592	inactive: -0.522
GGCAACAACAUACCUAAUATT against 2410005O16Rik	inactive: 0.687
GGUCAAACAAGAAACAGUUTT against Prdm1	inactive: 0.23
GGCAUUCUGAGGAGAGCAATT against Tcfap2d	inactive: 0.634
CGAGUUAGCCUUCAUCCCUTT against Islr	inactive: -0.0401
GGACAUUUUUAUGCACAAUTT against Il1rl2	inactive: 0.108
GGCAAAGAUAAUAAAGCUATT against Xpo1	inactive: -1.85
GGGACGCAGUUUUCCGAUGTT against Nkx2-3	inactive: 0.973
GGAACAGAAGAAAAAACACTT against Ftsj3	inactive: -0.749
CCUCAAUGGGUUUGUUCAATT against Kcns3	inactive: -1.21
GGGUUAUUCAAGAAAAGCATT against Stip1	inactive: -1.59
GCUGUGUCGGUGUUGGAUGTT against C330006K01Rik	inactive: -2.28
GGCUCUUGCCAGAAUUAACTT against 0610009E20Rik	inactive: 1.15
CGAGAUUAUCAGUCAAUUGTT against LOC541463	inactive: 1.32
GCAGUGUAACUGGUAAAAUTT against AI553587	inactive: 1.55

A few values from the list.
z-score with CGAAUGGCAUACAAUAACCTT against C1qtnf7 reads inactive: -0.174
z-score with GGGACGCAGUUUUCCGAUGTT against Nkx2-3 reads inactive: 0.973
z-score with GGCAACAACAUACCUAAUATT against 2410005O16Rik reads inactive: 0.687
z-score with GGACAUUUUUAUGCACAAUTT against Il1rl2 reads inactive: 0.108

(further entries)

Sequence	z-score
CGUGUUCUAUGAUGGUAAUTT against 1300018J18Rik	inactive: 0.901
GGGACUGCUCUUUUCUCUCTT against Rabif	inactive: 0.11
GCUGUCAUUCUGUGGUCCATT against Olfr538	inactive: -0.00326
GGGAUCUUCGGAACUUAGUTT against Pde1a	inactive: 0.84
GCGGAGAGUUAAUGUUUCUTT against Cbx3	inactive: -0.826
GCACGAAUGCCUUUUUAGATT against 4930548G07Rik	inactive: 0.15
GGAUUUUCGGGACUCUUUATT against Sfmbt1	inactive: -2.31
CCCUCAAAUAACAUCCAGGTT against 1700029G01Rik	inactive: -3.61
GGUGCUGAUUGACCUAACATT against Wdtc1	inactive: -0.931
GGAAUAUCUGAUAUCAGUATT against Mamdc1	inactive: -0.992
GGAUCAGAUAAAAUACCAATT against Oas2	inactive: -1.32
GGGUCCUGAUAAUGUCCUATT against Tlr1	inactive: 0.66
GGAAUGUGUCUUCUCAAGUTT against A530021J07	inactive: 0.911
GGUCACAACCAUGAAGAGCTT against 1700093K21Rik	inactive: -0.947
GGUGGUAGAACUGUUAAAATT against Klc2	inactive: 1.22
GGAAUUUGAGAUCUACACUTT against Zfp398	inactive: 0.532
CCCAGUUUAAGCACUUACATT against Ebaf	inactive: 1.21
GGUAAAUUACAAAGUGAAGTT against 5730469M10Rik	inactive: -0.696
GCCCUUACGUGGUAAAACCTT against Gm784	inactive: 0.929
GGAGAACGUGGUACAAAGUTT against Sncg	inactive: -1.36
GGCCUAUCUUCCCAGGAAATT against Mapk1	active: 1.76
CCCACUAAAAUCCUAUCUCTT against Ggta1	inactive: -0.651

Sequence	z-score
GGAUUUAAUGUACUAUGUGTT against 2210408I21Rik	inactive: 0.558
GCAAUGCAGUACUAAACUCTT against Cabc1	inactive: -0.105
GGAAUGUGUUCCAUAAUUUTT against Syn2	inactive: -1.63
GGAGCUGGAUUCGACGUGATT against Cacna1c	inactive: 1.46
GCAGGAUACAAUGUAAAGCTT against Rab6	inactive: -0.487
GCCUAAAGCGGCCAAACCATT against Hist1h1e	inactive: -1.05
GGGACUUUGGUCAAUAAUGTT against Tcf19	inactive: -0.162
CCCUGGUCCAUCUCUAGUGTT against 2410043F08Rik	inactive: 1.1
GGAUGAAGAUGUGUCAAUATT against Api5	inactive: -0.409
GCACAUUUAACUUCAGUCATT against Tgn	inactive: -0.58
GGACUGAUUGCUUUAGUAATT against Olfr1184	inactive: -0.885
GGAAAAUACAGCUUUGUAATT against D12Ertd551e	inactive: -0.882
GGAAGAAUGCCUACUGAUATT against A030012M09Rik	inactive: 0.585
GGGAAUUUAAUUUUUCGUGTT against Sfn	inactive: 1.04
GCGAAACUUCCAGAUCUAGTT against D1Bwg0212e	inactive: -1.53
GGAAAUGUGGGAGAAAAUATT against H2-M1	inactive: -1.86
GCAGUGUUAGACUUUUAUGTT against 2410011O22Rik	inactive: 0.894
GCUGUUACCCUUAUGCAGCTT against 2610524B01Rik	inactive: 0.8
GGAUUUAUAGACAAGUUCUTT against 9830130M13	inactive: 2.59
GGCUCAAGAAAGUGAAUGATT against Myog	inactive: -0.717
GCCGAUAGCGGGAUUUAUUTT against Itsn1	inactive: -0.702
GCAAAAAAUGCUCAGUUAGTT against 4932411L21Rik	inactive: -0.463
